In the supplement of paper PMC6411743:
± gives the standard deviation of the averaged measurements. The entries are a selection whose mix differs from that of the whole data set.

Tests used:
Assay in all cases: NP40-soluble protein abundance relative to vehicle (solubility fold change) (ratio); higher = more soluble protein in presence of AMP-PNP
[1] = molecular target: T1, AARSD1 (UniProt Q9BTE6)
T1 sequence (whole entry): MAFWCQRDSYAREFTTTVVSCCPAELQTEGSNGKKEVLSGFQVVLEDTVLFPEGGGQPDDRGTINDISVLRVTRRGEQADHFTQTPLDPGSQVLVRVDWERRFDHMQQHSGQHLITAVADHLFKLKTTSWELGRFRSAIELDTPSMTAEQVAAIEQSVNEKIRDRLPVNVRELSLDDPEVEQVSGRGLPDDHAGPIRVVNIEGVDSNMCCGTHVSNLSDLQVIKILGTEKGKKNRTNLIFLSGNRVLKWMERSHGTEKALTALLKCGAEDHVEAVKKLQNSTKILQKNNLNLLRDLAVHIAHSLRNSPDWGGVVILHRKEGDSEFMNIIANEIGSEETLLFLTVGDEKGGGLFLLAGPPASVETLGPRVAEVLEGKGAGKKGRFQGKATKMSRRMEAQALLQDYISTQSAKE
How it was run: (§1)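 Values are fold changes against the detergent-processed vehicle, based on vsn-normalised intensities. Jurkat crude lysate was treated at eight concentrations from 0.1 to 10 mM (10 min at room temperature, then 3 min at 37 °C), solubilised with 0.8% NP40 and benzonase, ultracentrifuged and analysed by TMT-labelled LC-MS/MS over three independent experiments.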

[2] = molecular target: T2, ABHD6 (UniProt Q9BV23)
T2 sequence (whole entry): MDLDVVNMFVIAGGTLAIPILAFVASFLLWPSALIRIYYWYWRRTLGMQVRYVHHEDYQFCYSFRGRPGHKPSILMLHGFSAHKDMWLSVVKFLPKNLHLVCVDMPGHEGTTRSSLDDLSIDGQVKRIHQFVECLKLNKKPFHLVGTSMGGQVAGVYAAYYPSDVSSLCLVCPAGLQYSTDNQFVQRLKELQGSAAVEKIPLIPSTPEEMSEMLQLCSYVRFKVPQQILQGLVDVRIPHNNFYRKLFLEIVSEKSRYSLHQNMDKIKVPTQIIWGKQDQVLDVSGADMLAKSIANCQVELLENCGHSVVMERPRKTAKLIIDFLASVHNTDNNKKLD
How it was run: as §1

[3] = molecular target: T3, ADAT1 (UniProt Q9BUB4)
T3 sequence (whole entry): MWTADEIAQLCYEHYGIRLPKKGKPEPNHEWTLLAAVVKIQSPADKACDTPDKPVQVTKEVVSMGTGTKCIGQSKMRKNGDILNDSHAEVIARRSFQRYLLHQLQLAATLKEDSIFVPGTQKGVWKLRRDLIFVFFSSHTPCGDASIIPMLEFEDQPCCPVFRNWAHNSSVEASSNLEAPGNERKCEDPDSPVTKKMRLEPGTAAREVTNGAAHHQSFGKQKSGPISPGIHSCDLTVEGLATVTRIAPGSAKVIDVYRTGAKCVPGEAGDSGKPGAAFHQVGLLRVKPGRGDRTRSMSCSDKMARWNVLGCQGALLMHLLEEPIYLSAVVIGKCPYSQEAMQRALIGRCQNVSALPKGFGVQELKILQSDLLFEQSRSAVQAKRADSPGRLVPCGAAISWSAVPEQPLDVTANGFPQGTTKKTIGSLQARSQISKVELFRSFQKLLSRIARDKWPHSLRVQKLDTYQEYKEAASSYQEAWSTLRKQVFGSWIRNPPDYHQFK
How it was run: as §1

[4] = molecular target: T4, DNAJC2 (UniProt Q99543)
T4 sequence (whole entry): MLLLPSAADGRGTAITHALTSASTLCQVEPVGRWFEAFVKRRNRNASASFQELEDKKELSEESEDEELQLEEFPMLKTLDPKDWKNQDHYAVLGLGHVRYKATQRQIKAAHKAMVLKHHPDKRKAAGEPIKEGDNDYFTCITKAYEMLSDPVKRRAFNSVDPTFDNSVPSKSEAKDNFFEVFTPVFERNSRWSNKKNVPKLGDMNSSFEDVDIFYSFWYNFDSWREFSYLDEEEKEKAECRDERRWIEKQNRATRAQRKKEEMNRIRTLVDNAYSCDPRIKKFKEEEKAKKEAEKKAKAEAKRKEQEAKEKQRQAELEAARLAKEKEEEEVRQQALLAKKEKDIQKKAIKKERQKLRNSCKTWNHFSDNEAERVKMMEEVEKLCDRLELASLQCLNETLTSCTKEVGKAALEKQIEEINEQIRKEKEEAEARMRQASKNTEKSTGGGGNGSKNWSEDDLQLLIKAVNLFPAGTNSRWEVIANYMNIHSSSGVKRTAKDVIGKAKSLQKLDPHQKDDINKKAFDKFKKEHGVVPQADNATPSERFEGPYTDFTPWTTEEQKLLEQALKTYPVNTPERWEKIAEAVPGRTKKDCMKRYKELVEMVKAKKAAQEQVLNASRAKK
How it was run: as §1

[5] = molecular target: T5, DOHH (UniProt Q9BU89)
T5 sequence (whole entry): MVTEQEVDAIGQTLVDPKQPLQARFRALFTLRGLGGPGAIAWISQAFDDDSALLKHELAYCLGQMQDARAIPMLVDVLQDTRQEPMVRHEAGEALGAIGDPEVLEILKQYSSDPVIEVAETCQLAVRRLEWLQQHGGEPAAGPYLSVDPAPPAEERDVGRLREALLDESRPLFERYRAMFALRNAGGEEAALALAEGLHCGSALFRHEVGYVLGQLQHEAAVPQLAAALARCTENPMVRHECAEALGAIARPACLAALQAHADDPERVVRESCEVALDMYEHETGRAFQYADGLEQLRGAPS
How it was run: as §1

[6] = molecular target: T6, EFHD1 (UniProt Q9BUP0)
T6 sequence (whole entry): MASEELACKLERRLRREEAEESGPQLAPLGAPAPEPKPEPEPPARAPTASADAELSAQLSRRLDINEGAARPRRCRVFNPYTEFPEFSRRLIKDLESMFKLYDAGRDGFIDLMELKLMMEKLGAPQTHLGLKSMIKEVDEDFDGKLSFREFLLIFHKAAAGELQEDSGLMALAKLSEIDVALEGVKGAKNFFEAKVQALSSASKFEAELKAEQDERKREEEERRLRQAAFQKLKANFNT
How it was run: as §1

[7] = molecular target: T7, FUNDC2 (UniProt Q9BWH2)
T7 sequence (whole entry): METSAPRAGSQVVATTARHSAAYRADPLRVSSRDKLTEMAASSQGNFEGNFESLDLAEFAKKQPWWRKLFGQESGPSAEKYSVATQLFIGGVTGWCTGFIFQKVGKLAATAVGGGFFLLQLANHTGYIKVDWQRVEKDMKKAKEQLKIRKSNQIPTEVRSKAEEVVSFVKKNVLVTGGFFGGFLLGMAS
How it was run: as §1

[8] = molecular target: T8, NACC1 (UniProt Q96RE7)
T8 sequence (whole entry): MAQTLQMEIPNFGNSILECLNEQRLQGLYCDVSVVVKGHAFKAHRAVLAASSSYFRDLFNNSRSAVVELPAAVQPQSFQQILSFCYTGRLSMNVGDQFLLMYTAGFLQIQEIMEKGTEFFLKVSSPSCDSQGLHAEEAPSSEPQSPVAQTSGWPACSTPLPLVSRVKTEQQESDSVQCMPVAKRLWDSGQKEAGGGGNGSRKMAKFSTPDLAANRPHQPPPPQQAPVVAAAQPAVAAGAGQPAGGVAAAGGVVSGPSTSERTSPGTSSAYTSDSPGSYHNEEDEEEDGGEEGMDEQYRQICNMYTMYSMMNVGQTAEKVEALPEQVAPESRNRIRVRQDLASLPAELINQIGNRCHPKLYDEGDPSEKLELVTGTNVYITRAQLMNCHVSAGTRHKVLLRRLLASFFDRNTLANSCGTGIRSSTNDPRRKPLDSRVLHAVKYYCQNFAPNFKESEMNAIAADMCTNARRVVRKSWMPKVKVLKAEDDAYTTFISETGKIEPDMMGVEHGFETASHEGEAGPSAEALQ
How it was run: as §1

[9] = molecular target: T9, NOC4L (UniProt Q9BVI4); settings: concentration: 1mM
T9 sequence (whole entry): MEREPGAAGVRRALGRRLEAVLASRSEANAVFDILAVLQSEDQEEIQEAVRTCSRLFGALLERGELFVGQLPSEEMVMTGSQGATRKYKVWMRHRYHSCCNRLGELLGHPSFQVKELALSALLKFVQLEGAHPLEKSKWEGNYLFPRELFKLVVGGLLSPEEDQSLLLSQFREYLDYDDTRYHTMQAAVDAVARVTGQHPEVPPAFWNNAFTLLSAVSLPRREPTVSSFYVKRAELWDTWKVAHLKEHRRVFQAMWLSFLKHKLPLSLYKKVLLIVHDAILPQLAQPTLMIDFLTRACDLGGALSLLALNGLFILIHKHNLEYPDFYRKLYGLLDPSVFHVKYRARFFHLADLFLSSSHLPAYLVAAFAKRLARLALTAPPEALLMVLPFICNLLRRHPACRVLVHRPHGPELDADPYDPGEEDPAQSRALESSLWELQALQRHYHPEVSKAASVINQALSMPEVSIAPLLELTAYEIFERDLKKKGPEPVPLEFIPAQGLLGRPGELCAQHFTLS
How it was run: as §1

## Nc1ncnc2c1ncn2[C@@H]1O[C@H](COP(=O)(O)OP(=O)(O)NP(=O)(O)O)[C@@H](O)[C@H]1O [adenylyl imidodiphosphate]
[1]; concentration: 1mM
  NP40-soluble protein abundance: 0.966 ± 0.01
[1]; concentration: 2mM
  NP40-soluble protein abundance: 0.936 ± 0.018
[1]; concentration: 4mM
  NP40-soluble protein abundance: 0.9389 ± 0.0084
[1]; concentration: 6mM
  NP40-soluble protein abundance: 0.967 ± 0.021
[1]; concentration: 8mM
  NP40-soluble protein abundance: 0.962 ± 0.018
[1]; concentration: 10mM
  NP40-soluble protein abundance: 0.962 ± 0.02
[2]; concentration: 1mM
  NP40-soluble protein abundance: 1.01 ± 0.023
[2]; concentration: 2mM
  NP40-soluble protein abundance: 0.997 ± 0.032
[2]; concentration: 4mM
  NP40-soluble protein abundance: 1.01 ± 0.0071
[2]; concentration: 6mM
  NP40-soluble protein abundance: 1.01 ± 0.028
[2]; concentration: 8mM
  NP40-soluble protein abundance: 1 ± 0.025
[2]; concentration: 10mM
  NP40-soluble protein abundance: 0.999 ± 0.023
[3]; concentration: 1mM
  NP40-soluble protein abundance: 1 ± 0.027
[3]; concentration: 2mM
  NP40-soluble protein abundance: 1 ± 0.03
[3]; concentration: 4mM
  NP40-soluble protein abundance: 1.01 ± 0.031
[3]; concentration: 6mM
  NP40-soluble protein abundance: 0.997 ± 0.027
[3]; concentration: 8mM
  NP40-soluble protein abundance: 1.01 ± 0.035
[3]; concentration: 10mM
  NP40-soluble protein abundance: 0.995 ± 0.057
[4]; concentration: 1mM
  NP40-soluble protein abundance: 1.049 ± 0.0066
[4]; concentration: 2mM
  NP40-soluble protein abundance: 1.02 ± 0.015
[4]; concentration: 4mM
  NP40-soluble protein abundance: 1.01 ± 0.02
[4]; concentration: 6mM
  NP40-soluble protein abundance: 0.972 ± 0.045
[4]; concentration: 8mM
  NP40-soluble protein abundance: 0.955 ± 0.016
[4]; concentration: 10mM
  NP40-soluble protein abundance: 0.949 ± 0.024
[5]; concentration: 1mM
  NP40-soluble protein abundance: 0.987 ± 0.041
[5]; concentration: 2mM
  NP40-soluble protein abundance: 1.04 ± 0.012
[5]; concentration: 4mM
  NP40-soluble protein abundance: 1.02 ± 0.05
[5]; concentration: 6mM
  NP40-soluble protein abundance: 0.971 ± 0.015
[5]; concentration: 8mM
  NP40-soluble protein abundance: 0.957 ± 0.06
[5]; concentration: 10mM
  NP40-soluble protein abundance: 0.958 ± 0.042
[6]; concentration: 1mM
  NP40-soluble protein abundance: 0.952 ± 0.093
[6]; concentration: 2mM
  NP40-soluble protein abundance: 0.996 ± 0.08
[6]; concentration: 4mM
  NP40-soluble protein abundance: 0.955 ± 0.084
[6]; concentration: 6mM
  NP40-soluble protein abundance: 0.937 ± 0.066
[6]; concentration: 8mM
  NP40-soluble protein abundance: 0.941 ± 0.056
[6]; concentration: 10mM
  NP40-soluble protein abundance: 0.894 ± 0.078
[7]; concentration: 1mM
  NP40-soluble protein abundance: 0.996 ± 0.015
[7]; concentration: 2mM
  NP40-soluble protein abundance: 1.06 ± 0.12
[7]; concentration: 4mM
  NP40-soluble protein abundance: 1 ± 0.065
[7]; concentration: 6mM
  NP40-soluble protein abundance: 1.06 ± 0.067
[7]; concentration: 8mM
  NP40-soluble protein abundance: 1.03 ± 0.056
[7]; concentration: 10mM
  NP40-soluble protein abundance: 1.1 ± 0.12
[8]; concentration: 1mM
  NP40-soluble protein abundance: 1 ± 0.021
[8]; concentration: 2mM
  NP40-soluble protein abundance: 1.03 ± 0.052
[8]; concentration: 4mM
  NP40-soluble protein abundance: 1 ± 0.049
[8]; concentration: 6mM
  NP40-soluble protein abundance: 0.997 ± 0.034
[8]; concentration: 8mM
  NP40-soluble protein abundance: 0.976 ± 0.042
[8]; concentration: 10mM
  NP40-soluble protein abundance: 1.01 ± 0.067
[9]
  NP40-soluble protein abundance: 1.01 ± 0.019
